This is one part of the list.
Key:
Test in all cases: log2 fold change, soluble protein after heating vs DMSO (PISA); higher = thermal stabilisation; K562 lysate, 10 uM; active = over 0.2 and 3.5 SD of the protein, either way, in both replicates (recomputed)
[1] = compound: CN1CCN(c2nc(C3=C(c4c[nH]c5ccccc45)C(=O)NC3=O)c3ccccc3n2)CC1 [sotrastaurin]
How it was run: (§1)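 Quantification was by TMTpro 16plex LC-MS/MS with equalised channel sums, applied to the supernatant after 21,000xg for 90 min. Samples were crude K562 extract at 1 mg/mL protein in PBS pH 7.4 with 1 mM MgCl2, treated with 10 μM compound for 30 min, heated for 3 min across 48°C-58°C, pooled and brought to 0.5% NP-40 at 4°C. Values are log-two fold changes in thermal stability relative to solvent controls, from duplicates.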

Amino acid sequences for entries named in this document (tags omitted). A change or cut given only in a name is not applied to a line headed by its entry.
UniProt P31994: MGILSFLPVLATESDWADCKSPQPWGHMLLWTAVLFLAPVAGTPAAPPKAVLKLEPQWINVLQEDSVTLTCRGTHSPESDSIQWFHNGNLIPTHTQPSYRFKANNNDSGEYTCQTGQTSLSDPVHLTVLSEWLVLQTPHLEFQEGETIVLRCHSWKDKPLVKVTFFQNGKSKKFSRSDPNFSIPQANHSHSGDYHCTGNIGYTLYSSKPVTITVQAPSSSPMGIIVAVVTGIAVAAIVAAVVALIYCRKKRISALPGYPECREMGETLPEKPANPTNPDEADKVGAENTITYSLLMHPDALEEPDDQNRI
UniProt Q14CZ7: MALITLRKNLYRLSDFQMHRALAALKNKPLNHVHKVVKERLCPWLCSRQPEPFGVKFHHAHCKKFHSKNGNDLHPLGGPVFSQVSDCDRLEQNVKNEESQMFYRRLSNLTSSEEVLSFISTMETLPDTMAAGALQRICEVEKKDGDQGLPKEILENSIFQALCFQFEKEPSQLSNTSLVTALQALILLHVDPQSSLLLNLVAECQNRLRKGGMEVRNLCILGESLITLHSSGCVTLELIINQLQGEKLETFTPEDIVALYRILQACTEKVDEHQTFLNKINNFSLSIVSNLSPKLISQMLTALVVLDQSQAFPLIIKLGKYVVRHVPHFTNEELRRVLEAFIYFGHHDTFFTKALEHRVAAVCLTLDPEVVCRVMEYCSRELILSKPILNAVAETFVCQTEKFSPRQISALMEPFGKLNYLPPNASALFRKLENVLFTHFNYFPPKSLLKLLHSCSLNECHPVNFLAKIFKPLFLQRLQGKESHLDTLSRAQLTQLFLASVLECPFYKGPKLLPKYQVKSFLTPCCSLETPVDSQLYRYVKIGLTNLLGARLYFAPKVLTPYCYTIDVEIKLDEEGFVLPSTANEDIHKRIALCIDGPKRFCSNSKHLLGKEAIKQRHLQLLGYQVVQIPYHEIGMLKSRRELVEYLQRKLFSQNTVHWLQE
UniProt Q96AY3, whole entry, looked up: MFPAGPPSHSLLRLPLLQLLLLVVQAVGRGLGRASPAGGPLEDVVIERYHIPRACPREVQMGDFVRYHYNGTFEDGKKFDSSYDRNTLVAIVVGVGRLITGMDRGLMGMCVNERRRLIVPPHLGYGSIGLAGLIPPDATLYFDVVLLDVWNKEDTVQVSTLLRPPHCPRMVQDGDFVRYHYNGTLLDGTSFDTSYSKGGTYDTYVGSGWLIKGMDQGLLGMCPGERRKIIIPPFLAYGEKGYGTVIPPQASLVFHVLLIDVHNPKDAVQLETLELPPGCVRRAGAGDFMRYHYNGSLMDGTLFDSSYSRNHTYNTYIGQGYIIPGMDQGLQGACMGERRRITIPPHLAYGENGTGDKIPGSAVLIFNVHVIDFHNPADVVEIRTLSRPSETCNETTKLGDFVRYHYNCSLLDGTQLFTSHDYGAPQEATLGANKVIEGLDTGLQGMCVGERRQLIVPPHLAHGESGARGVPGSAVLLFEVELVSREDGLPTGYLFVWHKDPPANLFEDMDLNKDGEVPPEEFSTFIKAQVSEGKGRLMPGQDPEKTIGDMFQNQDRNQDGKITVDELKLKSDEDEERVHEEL
UniProt Q8NFZ0: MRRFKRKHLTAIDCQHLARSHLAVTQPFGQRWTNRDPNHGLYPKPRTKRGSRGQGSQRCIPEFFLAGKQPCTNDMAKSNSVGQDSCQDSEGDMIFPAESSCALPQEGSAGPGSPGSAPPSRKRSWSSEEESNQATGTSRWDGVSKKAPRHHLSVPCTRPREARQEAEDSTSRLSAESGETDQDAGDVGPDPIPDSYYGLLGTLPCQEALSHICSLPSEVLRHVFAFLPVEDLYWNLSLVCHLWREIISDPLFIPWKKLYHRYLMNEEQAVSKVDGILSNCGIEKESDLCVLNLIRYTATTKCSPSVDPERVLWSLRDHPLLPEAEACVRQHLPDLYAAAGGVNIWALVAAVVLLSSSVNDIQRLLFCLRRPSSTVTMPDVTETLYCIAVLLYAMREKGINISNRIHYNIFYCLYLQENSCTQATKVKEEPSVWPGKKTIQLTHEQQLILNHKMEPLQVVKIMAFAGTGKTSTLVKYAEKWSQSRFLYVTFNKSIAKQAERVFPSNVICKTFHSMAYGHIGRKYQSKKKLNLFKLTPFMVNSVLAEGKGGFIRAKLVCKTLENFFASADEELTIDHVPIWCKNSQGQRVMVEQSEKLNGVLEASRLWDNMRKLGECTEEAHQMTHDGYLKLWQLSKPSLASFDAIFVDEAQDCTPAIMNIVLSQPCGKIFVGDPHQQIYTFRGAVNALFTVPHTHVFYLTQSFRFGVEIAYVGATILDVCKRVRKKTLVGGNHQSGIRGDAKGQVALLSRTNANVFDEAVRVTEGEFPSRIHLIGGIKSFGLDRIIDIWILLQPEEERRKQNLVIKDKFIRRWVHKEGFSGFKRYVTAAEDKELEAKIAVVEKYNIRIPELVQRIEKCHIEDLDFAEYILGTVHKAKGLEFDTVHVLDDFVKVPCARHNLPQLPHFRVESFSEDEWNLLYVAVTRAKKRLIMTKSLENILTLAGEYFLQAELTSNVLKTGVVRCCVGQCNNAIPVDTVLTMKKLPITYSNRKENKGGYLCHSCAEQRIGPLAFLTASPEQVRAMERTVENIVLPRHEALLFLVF
UniProt Q8N6M3: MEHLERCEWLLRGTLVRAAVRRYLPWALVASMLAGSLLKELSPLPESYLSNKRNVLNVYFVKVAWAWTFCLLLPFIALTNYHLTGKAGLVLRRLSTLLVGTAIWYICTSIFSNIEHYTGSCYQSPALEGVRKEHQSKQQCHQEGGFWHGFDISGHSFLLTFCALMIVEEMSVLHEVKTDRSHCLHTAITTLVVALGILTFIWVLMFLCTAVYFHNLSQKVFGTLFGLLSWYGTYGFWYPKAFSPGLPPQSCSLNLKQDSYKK
UniProt Q6UN15: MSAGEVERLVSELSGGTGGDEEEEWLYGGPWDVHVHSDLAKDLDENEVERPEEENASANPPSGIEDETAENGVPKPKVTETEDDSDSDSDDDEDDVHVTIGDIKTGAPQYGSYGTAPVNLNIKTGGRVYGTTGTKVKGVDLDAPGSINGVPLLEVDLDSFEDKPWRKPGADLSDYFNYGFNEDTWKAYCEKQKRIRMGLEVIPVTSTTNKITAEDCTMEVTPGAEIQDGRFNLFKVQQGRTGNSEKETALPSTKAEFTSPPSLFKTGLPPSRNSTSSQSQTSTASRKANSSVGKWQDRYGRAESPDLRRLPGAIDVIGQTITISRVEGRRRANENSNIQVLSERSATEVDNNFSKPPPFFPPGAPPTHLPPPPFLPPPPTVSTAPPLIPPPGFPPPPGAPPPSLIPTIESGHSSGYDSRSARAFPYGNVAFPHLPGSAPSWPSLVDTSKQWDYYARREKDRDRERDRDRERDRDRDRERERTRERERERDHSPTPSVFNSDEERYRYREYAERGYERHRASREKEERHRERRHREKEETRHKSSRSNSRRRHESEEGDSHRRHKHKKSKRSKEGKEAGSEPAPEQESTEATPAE
UniProt Q4VC44: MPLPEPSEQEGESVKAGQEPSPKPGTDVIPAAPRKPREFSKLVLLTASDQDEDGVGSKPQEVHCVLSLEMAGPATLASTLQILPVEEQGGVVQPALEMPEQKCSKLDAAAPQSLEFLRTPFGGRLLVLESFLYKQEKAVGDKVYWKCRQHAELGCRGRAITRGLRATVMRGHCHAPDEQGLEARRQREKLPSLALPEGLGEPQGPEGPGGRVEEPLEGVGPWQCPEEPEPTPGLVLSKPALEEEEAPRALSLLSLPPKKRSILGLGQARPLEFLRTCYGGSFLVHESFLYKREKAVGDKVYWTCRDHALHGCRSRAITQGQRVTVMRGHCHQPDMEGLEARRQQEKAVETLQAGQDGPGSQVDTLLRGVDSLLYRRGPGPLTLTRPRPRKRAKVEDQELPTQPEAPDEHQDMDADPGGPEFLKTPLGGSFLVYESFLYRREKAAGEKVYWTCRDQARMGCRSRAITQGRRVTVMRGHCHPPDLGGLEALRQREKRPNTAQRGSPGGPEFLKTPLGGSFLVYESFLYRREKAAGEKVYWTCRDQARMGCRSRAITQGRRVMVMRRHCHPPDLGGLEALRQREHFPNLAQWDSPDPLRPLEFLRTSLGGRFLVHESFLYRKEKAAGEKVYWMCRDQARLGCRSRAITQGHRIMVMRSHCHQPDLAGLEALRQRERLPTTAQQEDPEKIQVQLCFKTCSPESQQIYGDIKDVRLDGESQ
UniProt Q7Z6M2: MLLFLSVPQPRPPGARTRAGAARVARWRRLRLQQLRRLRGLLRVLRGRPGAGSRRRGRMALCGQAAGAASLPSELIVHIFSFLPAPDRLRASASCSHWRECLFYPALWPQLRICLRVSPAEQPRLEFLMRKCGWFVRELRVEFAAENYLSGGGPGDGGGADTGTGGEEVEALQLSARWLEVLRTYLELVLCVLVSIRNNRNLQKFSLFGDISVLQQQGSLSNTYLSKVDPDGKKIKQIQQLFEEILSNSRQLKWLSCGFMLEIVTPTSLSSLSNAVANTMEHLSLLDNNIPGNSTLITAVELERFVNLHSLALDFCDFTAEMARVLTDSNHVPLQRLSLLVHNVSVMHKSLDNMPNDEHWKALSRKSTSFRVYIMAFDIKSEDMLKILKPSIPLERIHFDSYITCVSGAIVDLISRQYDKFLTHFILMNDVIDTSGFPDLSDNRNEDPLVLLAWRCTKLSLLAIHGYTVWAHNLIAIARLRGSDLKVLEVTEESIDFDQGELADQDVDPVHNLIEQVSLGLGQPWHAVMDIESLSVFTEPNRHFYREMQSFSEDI
UniProt Q9Y2H6: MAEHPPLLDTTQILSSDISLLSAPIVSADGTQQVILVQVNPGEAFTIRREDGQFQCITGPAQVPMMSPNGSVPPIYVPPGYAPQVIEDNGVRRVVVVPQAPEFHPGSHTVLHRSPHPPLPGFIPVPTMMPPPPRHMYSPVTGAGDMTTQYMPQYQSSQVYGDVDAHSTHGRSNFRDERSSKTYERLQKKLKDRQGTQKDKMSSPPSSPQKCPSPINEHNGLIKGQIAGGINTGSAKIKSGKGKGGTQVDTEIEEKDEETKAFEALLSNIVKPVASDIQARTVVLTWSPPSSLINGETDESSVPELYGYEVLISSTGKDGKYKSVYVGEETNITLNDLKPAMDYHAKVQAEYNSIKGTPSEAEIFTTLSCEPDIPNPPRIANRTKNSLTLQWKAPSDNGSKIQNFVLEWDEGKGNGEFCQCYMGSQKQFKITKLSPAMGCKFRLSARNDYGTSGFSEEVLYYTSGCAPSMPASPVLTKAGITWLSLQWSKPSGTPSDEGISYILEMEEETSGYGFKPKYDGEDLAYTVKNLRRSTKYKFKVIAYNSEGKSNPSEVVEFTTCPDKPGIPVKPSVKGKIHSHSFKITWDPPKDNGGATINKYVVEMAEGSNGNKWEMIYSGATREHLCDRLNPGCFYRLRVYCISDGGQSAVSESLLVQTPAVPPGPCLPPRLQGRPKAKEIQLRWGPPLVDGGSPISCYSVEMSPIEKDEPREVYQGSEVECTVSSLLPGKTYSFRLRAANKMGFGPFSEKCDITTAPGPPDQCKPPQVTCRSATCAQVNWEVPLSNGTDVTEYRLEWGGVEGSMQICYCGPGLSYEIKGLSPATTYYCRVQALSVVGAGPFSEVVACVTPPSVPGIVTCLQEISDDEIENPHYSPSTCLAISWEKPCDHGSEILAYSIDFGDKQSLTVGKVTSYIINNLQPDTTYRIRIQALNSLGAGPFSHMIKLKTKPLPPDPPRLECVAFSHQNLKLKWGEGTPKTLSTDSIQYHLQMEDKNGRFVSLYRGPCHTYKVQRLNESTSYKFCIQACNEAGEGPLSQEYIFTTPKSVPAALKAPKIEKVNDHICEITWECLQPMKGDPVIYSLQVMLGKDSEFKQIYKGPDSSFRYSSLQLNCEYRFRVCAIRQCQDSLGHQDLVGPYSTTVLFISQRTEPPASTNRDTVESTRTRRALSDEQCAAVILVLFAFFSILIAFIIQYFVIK
UniProt Q9NPI8: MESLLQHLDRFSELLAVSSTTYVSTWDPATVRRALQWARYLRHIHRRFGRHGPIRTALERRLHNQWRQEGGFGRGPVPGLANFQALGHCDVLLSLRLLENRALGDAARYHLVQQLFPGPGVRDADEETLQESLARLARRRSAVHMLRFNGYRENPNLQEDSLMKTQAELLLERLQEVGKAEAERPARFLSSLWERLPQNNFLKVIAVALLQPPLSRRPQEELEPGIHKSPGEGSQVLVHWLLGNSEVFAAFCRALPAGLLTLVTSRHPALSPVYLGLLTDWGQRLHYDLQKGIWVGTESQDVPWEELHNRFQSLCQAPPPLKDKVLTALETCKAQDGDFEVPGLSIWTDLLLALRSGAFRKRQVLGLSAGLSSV
UniProt Q9NVK5: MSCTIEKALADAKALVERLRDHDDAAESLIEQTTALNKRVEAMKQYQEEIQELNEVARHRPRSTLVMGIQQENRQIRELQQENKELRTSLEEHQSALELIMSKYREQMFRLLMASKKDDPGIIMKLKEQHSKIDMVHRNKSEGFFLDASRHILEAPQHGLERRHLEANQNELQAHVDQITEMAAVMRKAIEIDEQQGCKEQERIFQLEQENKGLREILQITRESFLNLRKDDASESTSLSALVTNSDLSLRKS

[2] = compound: CCN(CCCOc1ccc2c(Nc3cc(CC(=O)Nc4cccc(F)c4)[nH]n3)ncnc2c1)CCOP(=O)(O)O [barasertib]
How it was run: as §1

[3] = compound: CC[C@@H]1C(=O)N(C)c2cnc(Nc3ccc(C(=O)NC4CCN(C)CC4)cc3OC)nc2N1C1CCCC1
How it was run: as §1

[4] = compound: CCn1c(C(=O)N(C2CC2)C2CC2)cc2c3c(ncn3C)c(Nc3cc(C)n(C)n3)nc21
How it was run: as §1

[5] = compound: CCn1cc(-c2ccnc3[nH]c(-c4cccc(CN(C)C)c4)cc23)c(-c2ccc(NC(=O)N(C)C)cc2)n1
How it was run: as §1

[6] = compound: CN1CCC(CNc2ccc3ncc(-c4cccc(OC(F)(F)F)c4)n3n2)CC1
How it was run: as §1

[7] = compound: CN1CCN(CCOc2cc(OC3CCOCC3)c3c(Nc4c(Cl)ccc5c4OCO5)ncnc3c2)CC1 [saracatinib]
How it was run: as §1

[8] = compound: CN1CC[C@H](c2c(O)cc(O)c3c(=O)cc(-c4ccccc4Cl)oc23)[C@H](O)C1 [alvocidib]
How it was run: as §1

[9] = compound: CN1CCc2c(c3ccccc3n2Cc2ccc(C(=O)NO)cc2)C1 [Tubastatin A]
How it was run: as §1

[10] = compound: CNC(=O)C1=CC=CC=C1NC2=NC(=NC=C2Cl)NC3=C(C=C(C=C3)N4CCOCC4)OC
How it was run: as §1

[11] = compound: CNc1nc(-c2ccc3c(N)n[nH]c3c2)cc(N2C[C@@H](C(=O)NC3CCCCC3)CC[C@H]2C)n1
How it was run: as §1

[12] = compound: COC(=O)N[C@@H](C)CNc1nccc(-c2cn(C(C)C)nc2-c2cc(Cl)cc(NS(C)(=O)=O)c2F)n1 [encorafenib]
How it was run: as §1

[13] = compound: COC(=O)[C@H](CCSC)NC(=O)C1=C(C=C(C=C1)NC[C@H](CS)N)C2=CC=CC=C2
How it was run: as §1

[14] = compound: COc1cc(Nc2ncc3c(n2)-c2ccc(Cl)cc2C(c2c(F)cccc2OC)=NC3)ccc1C(=O)O [alisertib]
How it was run: as §1

[15] = compound: COc1cc2ncnc(Nc3ccc(F)c(Cl)c3)c2cc1OCCCN1CCOCC1 [gefitinib]
How it was run: as §1

[16] = compound: CCCS(=O)(=O)Nc1ccc(F)c(C(=O)c2c[nH]c3ncc(Cl)cc23)c1F
How it was run: as §1

[17] = compound: CC[C@@H]1C(=O)N(C)c2cnc(Nc3ccc(C(=O)N[C@H]4CC[C@H](N5CCN(CC6CC6)CC5)CC4)cc3OC)nc2N1C(C)C [volasertib]
How it was run: as §1

[18] = compound: COc1cc2nc(-c3cc(F)ccc3O)nc(N[C@@H]3CNC[C@H]3C(C)(C)O)c2cc1OC
How it was run: as §1

Measured: log2 fold change

FMR1NB (UniProt Q8N0W7)
inactive: [1] 0.167

FOXJ2 (UniProt Q9P0K8)
inactive: [2] -0.049 | [3] -0.149 | [4] 0.1 | [5] -0.062 | [6] -0.071 | [7] -0.101 | [8] 0.006 | [9] -0.114 | [10] 0.021 | [11] 0.053 | [12] -0.081 | [13] 0.022 | [14] -0.308 | [15] 0.057

FOSL1 (UniProt P15407)
inactive: [16] -0.058 | [17] 0.06 | [5] -0.082 | [6] 0.102 | [7] -0.012 | [1] 0.061 | [8] -0.03 | [11] -0.2 | [14] -0.233 | [18] 0.215 | [15] -0.01

FCGR2B (UniProt P31994)
inactive: [3] 0.224 | [4] 0.121 | [1] -0.02 | [9] 0.171 | [12] 0.087 | [13] -0.145

FASTKD3 (UniProt Q14CZ7)
inactive: [16] 0.301 | [3] -0.178 | [17] -0.354 | [12] 0.175 | [13] -0.001 | [14] 0.045 | [18] -0.172 | [15] 0.067

FKBP10 (UniProt Q96AY3)
inactive: [3] -0.037 | [4] 0.081 | [5] -0.043 | [6] -0.009 | [7] -0.03 | [8] 0.023 | [9] -0.052 | [11] 0.131 | [12] 0.044 | [13] 0.013 | [14] 0.065 | [15] 0.182

FBH1 isoform 2 (UniProt Q8NFZ0)
inactive: [2] 0.016 | [5] 0.031 | [6] -0.035 | [1] -0.029 | [8] 0.016 | [14] 0.132 | [15] -0.071

FANCE (UniProt Q9HB96)
inactive: [16] 0.008 | [17] -0.115 | [5] 0.045 | [6] -0.175 | [7] 0.145 | [1] 0.077 | [8] -0.126 | [11] -0.075 | [14] 0.001 | [18] -0.086 | [15] 0.095

FCF1 (UniProt Q9Y324)
inactive: [5] -0.099 | [6] 0.174 | [7] -0.161 | [1] 0.149 | [8] 0.019 | [11] -0.174 | [14] -0.266 | [15] -0.236

FDPS, A0A087WVN4
inactive: [16] -0.013 | [17] -0.011 | [18] 0.039

FBXO28 (UniProt Q9NVF7)
inactive: [16] -0.09 | [17] 0.012 | [4] 0.039 | [9] -0.005 | [18] -0.043

FITM2 (UniProt Q8N6M3)
inactive: [16] -0.042 | [2] 0.059 | [17] -0.039 | [14] 0.029 | [18] 0.044 | [15] -0.207

FIP1L1 isoform 3 (UniProt Q6UN15)
inactive: [16] -0.005 | [3] 0.117 | [17] 0.246 | [4] -0.111 | [1] 0.005 | [9] 0.024 | [10] -0.054 | [12] -0.128 | [13] -0.224 | [14] 0.109 | [18] 0.2 | [15] -0.062

FCHSD2 (UniProt O94868)
inactive: [16] 0.139 | [17] 0.008 | [7] 0.104 | [11] 0.045 | [14] 0.114 | [18] -0.032 | [15] 0.071

FLYWCH1 isoform 3 (UniProt Q4VC44)
inactive: [16] 0.009 | [17] 0.116 | [4] 0.128 | [7] 0.207 | [1] 0.141 | [9] 0.135 | [11] -0.039 | [14] -0.036 | [18] -0.25 | [15] 0.019

FER isoform 3 (UniProt P16591)
inactive: [16] 0.089 | [17] -0.07 | [5] -0.016 | [6] 0.164 | [1] 0.329 | [8] 0.179 | [18] -0.11

FBXO33 (UniProt Q7Z6M2)
inactive: [4] -0.141 | [9] 0

FNDC3A (UniProt Q9Y2H6)
inactive: [4] 0.044 | [5] -0.451 | [6] 0.138 | [1] -0.113 | [8] -0.017 | [9] -0.237 | [10] 0.014 | [14] -0.141 | [15] -0.214

FAT1 (UniProt Q14517)
inactive: [16] 0.022 | [3] 0.32 | [17] 0.025 | [4] -0.344 | [5] 0.001 | [6] -0.036 | [1] -0.333 | [8] -0.14 | [9] 0.18 | [10] 0 | [12] 0.029 | [13] 0.047 | [18] 0.094

FNTA (UniProt H0YCW1)
inactive: [4] -0.173 | [9] 0.048

FANCC (UniProt Q00597)
inactive: [16] 0.038 | [17] 0.008 | [4] 0.042 | [1] 0.029 | [9] -0.141 | [10] -0.157 | [18] 0.06

FMNL2 isoform 3 (UniProt Q96PY5)
inactive: [16] 0.022 | [17] -0.013 | [4] -0.103 | [7] 0.04 | [1] 0.08 | [9] 0.108 | [10] 0.011 | [11] 0.044 | [14] 0.073 | [18] 0.119 | [15] 0.241

FANCF (UniProt Q9NPI8)
inactive: [5] 0.298 | [6] -0.087 | [1] 0.008 | [8] -0.007

FBXL19 (UniProt Q6PCT2)
inactive: [4] -0.017 | [1] -0.088 | [9] 0.09 | [10] -0.162

FAXDC2 (UniProt Q96IV6)
inactive: [16] 0.078 | [3] 0.114 | [17] 0.006 | [5] 0.056 | [6] 0.204 | [7] -0.042 | [1] -0.18 | [8] -0.242 | [10] 0.199 | [11] 0.131 | [12] -0.217 | [13] -0.206 | [18] 0.029

FGFR1OP2 isoform 2 (UniProt Q9NVK5)
inactive: [5] 0.188 | [6] -0.104 | [1] 0.071 | [8] 0.067
